No constants are given. Whether binding was seen depends on the method and setting. Binding seen in cells or lysates may run through a third protein. Tags and fused reporters may be left off the sequences shown.
Target: T1, VN-Sph1 (synphilin-1 fused behind the N-terminal fragment of Venus) (human) (UniProt Q9Y6H5)
T1 sequence: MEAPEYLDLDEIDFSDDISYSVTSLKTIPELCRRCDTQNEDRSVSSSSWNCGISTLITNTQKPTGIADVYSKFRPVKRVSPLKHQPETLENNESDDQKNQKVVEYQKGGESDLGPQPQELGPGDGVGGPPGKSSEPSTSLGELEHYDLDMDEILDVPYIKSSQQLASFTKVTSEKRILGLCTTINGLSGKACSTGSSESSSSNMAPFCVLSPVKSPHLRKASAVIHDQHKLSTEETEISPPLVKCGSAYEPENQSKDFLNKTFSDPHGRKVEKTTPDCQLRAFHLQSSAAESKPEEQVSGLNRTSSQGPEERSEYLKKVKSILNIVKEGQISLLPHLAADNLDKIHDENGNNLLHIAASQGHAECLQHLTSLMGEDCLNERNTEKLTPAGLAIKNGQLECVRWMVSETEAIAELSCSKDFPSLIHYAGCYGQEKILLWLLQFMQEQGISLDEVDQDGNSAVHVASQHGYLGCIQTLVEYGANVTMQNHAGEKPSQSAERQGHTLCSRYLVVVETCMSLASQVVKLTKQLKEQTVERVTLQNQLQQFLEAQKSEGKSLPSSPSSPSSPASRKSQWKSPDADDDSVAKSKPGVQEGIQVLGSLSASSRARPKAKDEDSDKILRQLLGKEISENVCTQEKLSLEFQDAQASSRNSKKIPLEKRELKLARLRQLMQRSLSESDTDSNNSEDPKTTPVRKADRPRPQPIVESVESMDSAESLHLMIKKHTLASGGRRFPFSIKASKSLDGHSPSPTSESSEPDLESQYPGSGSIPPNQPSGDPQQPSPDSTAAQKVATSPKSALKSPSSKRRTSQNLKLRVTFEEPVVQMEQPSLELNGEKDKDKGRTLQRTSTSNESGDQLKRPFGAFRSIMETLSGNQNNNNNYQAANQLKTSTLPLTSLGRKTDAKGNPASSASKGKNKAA
Assay: split reporter; Venus BiFC in HEK 293 cells co-transfected with equimolar amounts of the VN and VC plasmids; fluorescence seen 24 or 48 h after transfection

- binding: no binding
Substance: VC alone (C-terminal fragment of Venus) (domain or fragment)
